Experimental findings from patent publication US20150307835 (published 2015) are described below.

The star is where a group is joined. Cbz = O=C(OCc1ccccc1)*; Boc = CC(C)(C)OC(=O)*; OtBu = CC(C)(C)O*

The nature of the data set: general procedure: solution-phase peptide synthesis; 1-ethyl-3-(3-dimethylaminopropyl)carbodiimide / N-hydroxybenzotriazole; pivaloyl.
Setting [1] is: late stage modification step, surface area.

Turning to “H3CO—[(CH2)2—O]2—CH2—CO—NH-FEFKFEFK-NH—[(CH2)3—O]2—(CH2)2—NH23HCl”, the “crude HPLC purity” value (late stage modification step, HPLC method CH-GS-10, % of surface area) is recorded as 84%. On to “HOOC—CH2—O—CH2—C(O)-Phe-Glu(OtBu)-Phe-Lys(Boc)-Phe-Glu(OtBu)-Phe-Lys(Boc)-OEt”, for which, for the setting “late stage modification step”, the step yield is listed as 95%. In addition, under setting [1], the “crude HPLC purity” value came out at 88%. For “H-Phe-Glu(OtBu)-Phe-Lys(Boc)-Phe-Glu(OtBu)-Phe-Lys(Boc)-NH—(CH2)3—O—(CH2)2—O—(CH2)2—O—(CH2)3—NHBoc” the same measures were 83% and 90%.

Substance “Z-Phe-Glu(OtBu)-Phe-Lys(Boc)-Phe-Glu(OtBu)-Phe-Lys(Boc)-NH—(CH2)3—O—(CH2)2—O—(CH2)2—O—(CH2)3—NHBoc” returned a conjugation yield (conjugation step) of 87%. For the same substance, the “crude HPLC purity” value (conjugation step, surface area) is recorded as 88%. Regarding “HOOCCH2OCH2CH2OCH2CH2NC(O)CH2OCH2C(O)-Phe-Glu-Phe-Lys-Phe-Glu-Phe-Lys-OEt”, the step yield (late stage modification step) is 85%. Also, the “crude HPLC purity” value under setting [1] came out at 85%. Regarding “H2NCH2CH2OCH2CH2OCH2C(O)Phe-Glu-Phe-Lys-Phe-Glu-Phe-Lys-OEt”, under setting [1], the “crude HPLC purity” value came to 85%. The substance Cbz-FE(OtBu)FK(Boc)FE(OtBu)FK(Boc)-OEt yielded a step yield (late stage modification step) of 84%. Moreover, the “crude HPLC purity” value under setting [1] is reported as 97%.

For “HOOCCH2OCH2CH2OCH2CH2NC(O)CH2OCH2C(O)-Phe-Glu(OtBu)-Phe-Lys(Boc)-Phe-Glu(OtBu)-Phe-Lys(Boc)-OEt”, for the setting “conjugation step”, the conjugation yield was 94%. For the same substance, the “crude HPLC purity” value (conjugation step, surface area) stood at 89%. In turn, “H-Phe-Glu-Phe-Lys-Phe-Glu-Phe-Lys-NH—(CH2)3—O—(CH2)2—O—(CH2)2—O—(CH2)3—NH2” yielded a step yield (late stage modification step) of 85%. Besides, under setting [1], the “crude HPLC purity” value amounted to 88%.
